Results of single-concentration screens

Chains of the proteins cited; added tags and fusions are not shown. Residues count along the entry.
UniProt A4I591, 1-473: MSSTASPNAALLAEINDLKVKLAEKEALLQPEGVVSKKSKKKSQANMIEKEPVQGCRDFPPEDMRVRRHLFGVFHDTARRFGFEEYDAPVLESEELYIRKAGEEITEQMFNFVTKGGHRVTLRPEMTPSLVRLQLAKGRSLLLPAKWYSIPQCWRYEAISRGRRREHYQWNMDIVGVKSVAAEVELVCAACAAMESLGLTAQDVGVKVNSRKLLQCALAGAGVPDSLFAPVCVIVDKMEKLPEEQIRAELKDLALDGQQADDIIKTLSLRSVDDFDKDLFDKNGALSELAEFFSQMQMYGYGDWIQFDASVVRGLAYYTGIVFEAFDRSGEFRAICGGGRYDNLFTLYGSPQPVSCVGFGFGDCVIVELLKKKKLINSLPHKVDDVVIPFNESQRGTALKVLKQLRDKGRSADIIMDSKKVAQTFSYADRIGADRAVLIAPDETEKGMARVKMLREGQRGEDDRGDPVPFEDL
UniProt I6X8D2, whole entry: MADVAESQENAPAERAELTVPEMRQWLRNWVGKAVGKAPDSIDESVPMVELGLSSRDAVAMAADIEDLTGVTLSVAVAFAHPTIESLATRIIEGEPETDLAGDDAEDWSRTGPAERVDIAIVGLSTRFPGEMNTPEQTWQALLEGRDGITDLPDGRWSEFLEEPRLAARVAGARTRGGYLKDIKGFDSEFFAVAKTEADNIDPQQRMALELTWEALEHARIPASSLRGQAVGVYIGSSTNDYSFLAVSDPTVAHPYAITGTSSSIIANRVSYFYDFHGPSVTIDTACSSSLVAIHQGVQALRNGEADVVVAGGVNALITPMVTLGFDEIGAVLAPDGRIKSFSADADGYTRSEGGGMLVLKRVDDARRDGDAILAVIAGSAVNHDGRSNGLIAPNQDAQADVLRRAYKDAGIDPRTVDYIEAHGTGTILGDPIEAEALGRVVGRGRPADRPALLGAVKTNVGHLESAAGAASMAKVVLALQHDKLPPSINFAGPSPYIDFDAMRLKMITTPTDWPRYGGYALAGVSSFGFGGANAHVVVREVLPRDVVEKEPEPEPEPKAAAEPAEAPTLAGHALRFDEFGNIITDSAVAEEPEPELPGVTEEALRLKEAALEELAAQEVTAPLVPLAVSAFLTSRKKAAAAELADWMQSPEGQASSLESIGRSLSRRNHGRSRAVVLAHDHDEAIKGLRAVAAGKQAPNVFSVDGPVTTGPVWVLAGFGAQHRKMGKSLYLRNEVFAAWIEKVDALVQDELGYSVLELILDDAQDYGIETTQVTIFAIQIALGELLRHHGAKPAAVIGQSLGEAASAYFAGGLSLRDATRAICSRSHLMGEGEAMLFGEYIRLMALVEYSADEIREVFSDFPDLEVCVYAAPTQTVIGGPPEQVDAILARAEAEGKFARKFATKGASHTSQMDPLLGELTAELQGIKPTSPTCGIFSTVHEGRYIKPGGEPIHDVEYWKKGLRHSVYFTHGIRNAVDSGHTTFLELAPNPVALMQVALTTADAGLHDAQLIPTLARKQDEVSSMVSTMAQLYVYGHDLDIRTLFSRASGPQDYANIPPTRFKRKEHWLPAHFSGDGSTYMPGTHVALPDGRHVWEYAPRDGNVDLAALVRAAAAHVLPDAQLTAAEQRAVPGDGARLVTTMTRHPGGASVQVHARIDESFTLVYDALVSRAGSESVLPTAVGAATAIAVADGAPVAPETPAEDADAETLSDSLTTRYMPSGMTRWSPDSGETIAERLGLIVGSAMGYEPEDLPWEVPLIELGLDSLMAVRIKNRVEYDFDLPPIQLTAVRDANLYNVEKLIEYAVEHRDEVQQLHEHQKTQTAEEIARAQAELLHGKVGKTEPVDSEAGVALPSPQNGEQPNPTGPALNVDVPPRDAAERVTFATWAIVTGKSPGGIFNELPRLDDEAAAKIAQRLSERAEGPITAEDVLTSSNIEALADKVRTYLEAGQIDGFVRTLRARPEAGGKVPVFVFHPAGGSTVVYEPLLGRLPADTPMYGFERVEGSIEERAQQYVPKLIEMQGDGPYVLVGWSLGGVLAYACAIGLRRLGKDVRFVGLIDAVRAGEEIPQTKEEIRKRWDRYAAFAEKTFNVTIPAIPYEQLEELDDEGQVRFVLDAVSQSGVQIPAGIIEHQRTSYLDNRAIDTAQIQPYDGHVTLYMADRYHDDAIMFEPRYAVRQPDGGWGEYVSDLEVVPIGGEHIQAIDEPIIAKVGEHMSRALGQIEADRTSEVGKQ

A: 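Enzyme assay of histidyl-tRNA synthetase; the read-out is not stated. Target: Histidine-tRNA ligase, Leishmania infantum (UniProt A4I591). Tested at 30 µM. Higher reads as stronger inhibition (inferred: compounds with an IC50 in retests scored well above the rest). The assay is labelled LdHisRS but filed under L. infantum. Of about 69,000 compounds tested this way, about 410 (0.6%) reached 50% or more in at least one test.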
B: 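Enzyme assay of the thioesterase domain of polyketide synthase 13; the read-out is not stated. Target: Polyketide synthase Pks13, Mycobacterium tuberculosis (UniProt I6X8D2). Concentration: 30 µM. The record gives no direction; the compounds picked for IC50 retests had high values, so higher reads as stronger inhibition. Size under these conditions: about 67,000 compounds, about 300 of them at 50% or above in at least one test.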
C: 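Cell assay of Leishmania donovani living inside macrophages; the read-out is not stated. Compounds at 30 µM. The record gives no direction; compounds that gave an IC50 in retests scored well above the rest, so higher reads as stronger inhibition. About 69,000 compounds were tested under these conditions; 1.5% (about 1,000) showed 50% or more at least once.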

The filed quantity is “Percent Effect” (%).
The controls that fix the scale are not given in the record; negative values are as filed.
This is an unselected part of the compounds tested.
Two or more numbers in one place are separate tests of the same structure; such repeats can differ widely.
A dash means the value is not listed here; it may have been measured.

| structure | A | B | C |
|---|---|---|---|
| `CN(C)CCN1CCOCC2(C1)CN(Cc1ccsc1)CCO2` (stereo not drawn) | 9.489% | -13.93% | - |
| `O=C(CCc1ccsc1)Nc1cnccc1O` | 6.667% | -23.18% | 4.464% |
| `Cc1cc(CSCc2cc(C)on2)on1` | 5.333% | -21.52% | -13.6% |
| `OC(CNC1CCSCC1)c1cccc(OCc2ccccc2)c1` (stereo not drawn) | -7.692% | -9.692% | 77.88% |
| `CCS(=O)(=O)CC(=O)N1CCCC1c1noc(C2CC2)n1` (stereo not drawn) | 12.9% | 1.386% | -2.302% |
| `CCN(Cc1cnn(C)c1)C[C@H]1CC[C@@H](Cc2ccc(C#N)cc2)O1` | 1.042% | -12.26% | 14.52% |
| `COc1ccccc1CCN[C@@H]1c2ccccc2C2(CCNCC2)[C@H]1O` | 31.11% | -21.46% | 35.47% |
| `COCCOCC(=O)N1CCC2(CCCN(C3CCOCC3)C2=O)C1` (stereo not drawn) | 7.447% | -2.518% | 8.481% |
| `O=C(NC1CCCC1)[C@@H]1C[C@@H]2CCN(Cc3ccoc3)C[C@H]2O1` | 6.364% | -26.48% | - |
| `Cc1n[nH]c(C)c1CCC(=O)N(C)Cc1cn[nH]c1-c1ccc(F)cc1` | -8.571% | -3.508% | -7.304% |
| `[H][C@@]12CCN(Cc3ccoc3)C[C@@]1([H])O[C@@H](c1ccnc(C(C)C)n1)C2` | - | - | 36.24% |
| `O=C(c1cccc(NCc2cccc(F)c2)c1)N1CCC(O)CC1` | 16.67% | 1.013% | -2.78% |
| `CS(=O)(=O)NC1CCN(C(=O)c2[nH]c3ccc(Cl)cc3c2Cl)CC1` | 6.14% | 2.978% | 6.803% |
| `O=C(O)C(F)(F)F.[H][C@]12CCN(C(=O)c3ccno3)[C@@]1([H])CC[C@H](COCCN1CCCC1)O2` | - | - | 16.31% |
| `CN1CCN(C(=O)Cc2ccsc2)Cc2cccnc21` | 17.81% | 6.207% | - |
| `Cc1csc(C(C)(C)NCC(=O)N(C)Cc2ccc(C)o2)n1` | 3.529% | -0.377% | 6.926% |
| `COCCN1CCC2(CCN(c3ncccn3)CC2)C1=O.O=C(O)C(F)(F)F` | - | - | -1.102% |
| `O=C(O)C(F)(F)F.[H][C@]12CCN(C(=O)c3ccco3)[C@@]1([H])CC[C@@H](COCCN1CCCC1)O2` | - | - | 25.22% |
| `Cc1cccc(=O)n1CCCNc1nc(N(C)C)nc2c1CCNC2` | 35.29% | 18.57% | 13.28% |
| `COCC(=O)N1C[C@@H](O)[C@H](N2CCN(c3ccccc3)CC2)C1` | 7.042% | 7.63% | 31.45% |
| `NC(=O)CSCC(=O)N1CCc2cc(Cl)cc(Cl)c2C1` | 21.7% | 34.74% | 15.65% |
| `CS(=O)(=O)N1CCC2(CCCN(Cc3ccccn3)C2)CC1.O=C(O)C(F)(F)F` | - | - | -57.95% |
| `CC(C)c1ccc(-n2ncc(C(=O)NCC3COC(C)(C)O3)c2N)cc1` (stereo not drawn) | 11.88% | - | -0.1532% |
| `Cc1ccc(N2CCN(Cc3ccccc3)C3(CCNCC3)C2=O)cn1.O=C(O)C(F)(F)F` | - | - | -2.657% |
| `CN(Cc1ncc[nH]1)C(=O)C(C)(C)NC(=O)c1cccs1` | 15.38% | - | 14.32% & 27.6% |
| `CC(=O)N[C@H]1CCN2C(=O)[C@@H](Cc3c[nH]c4ccccc34)NC(=O)[C@H]12` | 6.757% | -7.139% | - |
| `Cc1noc([C@@H]2C[C@H]3OCC[C@H]3N(S(C)(=O)=O)C2)n1` | 13.33% | -22.05% | - |
| `CCc1noc(CN2CCCN(C(C)=O)CC2)n1` | 10.17% | -5.415% | 12.53% |
| `COc1cccc(-c2cccc(-c3ccn(CC4COCCO4)n3)c2)n1` (stereo not drawn) | 6.667% | - | -14.8% |
| `Cc1ccc(CN2CCn3c(CN(C)C(C)C)cnc3C2)s1` | 20.55% | -21.15% | - |
| `Cc1ccc(Sc2ccc(N3CCC(C(=O)O)CC3)nn2)cc1` | -1.695% | 17.04% | -24.57% |
| `CNc1cc(C)nc(N2CCC3(CC2)[C@H](O)C[C@@H]3O)n1` | 2.941% | -17.2% | 14.73% |
| `Cc1ccc(-c2cc(-c3nc(CN4CCN(C)CC4)no3)[nH]n2)s1` | 14.29% | -5.009% | 17.82% |
| `CC(C)OCCN1CCN(C(=O)c2cccc(-n3cccn3)n2)CC1` | 8.571% | -44.17% | 29.47% |
| `COCCCn1ccc(NC(=O)NCCn2ccnc2)n1` | 8.571% | -48.91% | 21.7% |
| `Cc1cc(C[S+]([O-])CC(=O)NCC(C)C)no1` (stereo not drawn) | 10.96% | -1.452% | -14.95% |
| `Cc1cc(NC(=O)CN2CCOC(CN(C)C)C2)n(C)n1` (stereo not drawn) | 10.11% | -9.793% | 9.756% |
| `COCC1CN(C(=O)c2ccoc2)Cc2cnn(CC3CCOCC3)c21` (stereo not drawn) | 5.66% | -2.198% | - |
| `O=C(O)C(F)(F)F.[H][C@@]12COC[C@]1(CNC(=O)C1CCC1)CN(Cc1ccccc1C)C2` | - | - | 1.412% |
| `Cc1ccc(CCNC(=O)CC2COCCN2S(=O)(=O)N(C)C)s1` (stereo not drawn) | 11.48% | -11.55% | 28.47% |
| `CC1CN(CC2CCCCC2)CCN1c1ccc2nncn2n1` (stereo not drawn) | 14.89% | 14.66% | 35.19% |
| `Cc1ccn(-c2ccccc2NCc2ncc[nH]2)n1` | 15.38% | -17.45% | 29.28% |
| `Cc1nccn1Cc1nnc(C2CCCN(Cc3ccncc3)C2)n1C` (stereo not drawn) | 23.38% | -15.55% | -32.36% |
| `N#Cc1cccc(CNC(=O)Nc2cccnc2N2CCCC2)c1` | -0.8772% | -3.134% | -6.461% |
| `NS(=O)(=O)CC1CCCN1CCOc1ccccc1F` (stereo not drawn) | 22.5% | -1.441% | -4.247% |
| `O=C(c1ccncc1)N1CCCC1C1CCN(Cc2ccccc2)CC1` (stereo not drawn) | 8% | -0.9087% | 14.01% |
| `CCOCCN1CCN(CC(O)c2ccc(C)c(C)c2)CC1` (stereo not drawn) | 13.92% | -40.4% | 32.27% |
| `Cc1cc(C)c(CNC(=O)NCC2COCCO2)c(=O)[nH]1` (stereo not drawn) | 22.02% | -7.488% | 18.31% |
| `CC(C)(C)C(O)CN1CCN(CC(=O)NC(C2CC2)C2CC2)CC1` (stereo not drawn) | 15.79% | -14.74% | 13.82% |
| `CCOCCN1CCN(c2ccc(CN(C)C)cn2)CC1` | 24.05% | -57.56% | -4.663% |
| `CCOC(=O)CC1CCCCN1C(=O)CCc1cc(Cl)no1` (stereo not drawn) | 8.571% | -7.79% | 4.393% |
| `Cc1nonc1CN(C)Cc1cnn(-c2ccc(F)cc2)c1` | 9.859% | 14.22% | 23.39% |
| `Cc1ccc(CNC(C)c2ccc(N3CCN(C)CC3)c(F)c2)o1.Cl` (stereo not drawn) | - | - | 23.49% |
| `Cc1cnn(CC2CCCN2Cc2cc(=O)n3cccc(C)c3n2)c1` (stereo not drawn) | 39.62% | -5.201% | 8.886% |
| `COCCn1cc(NCc2cn(C)nc2-c2ccncc2)cn1` | 51.75% | -7.341% | 4.13% |
| `N[C@@H]1CCN(Cc2ccc(-c3nc(-c4cccnc4)cc(=O)[nH]3)cc2)C1` | 14.58% | -26.97% | 15.77% |
| `COCCC(=O)NCc1cccnc1-n1cnc2ccccc21` | 11.11% | -16.81% | 2.484% |
| `CN(C)CC1CN(C(=O)CCc2ccccc2)Cc2nccn2C1.O=C(O)C(F)(F)F` (stereo not drawn) | - | - | 6.049% |
| `Cc1cc(C(=O)N2CCN(C)CC2)nn1CC(=O)NCc1cccs1` | 21.51% | -12.79% | - |
| `CCN(CC1CCOC1)C(=O)Cn1nnn(-c2cccs2)c1=O` (stereo not drawn) | 21.98% | -23.75% | 10.62% |
| `O=C(Cn1cccn1)N1CCC(Oc2ccc(C(F)(F)F)cn2)CC1` | 13.7% | -11.62% | 4.063% |
| `COC(=O)[C@H]1C[C@@H](O)CCN1S(=O)(=O)c1cc(Cl)ccc1OC` | 22% | 7.41% | 8.156% |

Once more, the final 4:

structure	A	B	C
Cc1cc(C(=O)N2CCN(C)CC2)nn1CC(=O)NCc1cccs1	21.51%	-12.79%	-
CCN(CC1CCOC1)C(=O)Cn1nnn(-c2cccs2)c1=O (stereo not drawn)	21.98%	-23.75%	10.62%
O=C(Cn1cccn1)N1CCC(Oc2ccc(C(F)(F)F)cn2)CC1	13.7%	-11.62%	4.063%
COC(=O)[C@H]1C[C@@H](O)CCN1S(=O)(=O)c1cc(Cl)ccc1OC	22%	7.41%	8.156%

From ChEMBL document CHEMBL3988442, “University of Dundee, Small-Polar-MMV Screening Library” (2021).